The other results are listed elsewhere or left out.
Assays:
Assay in all cases: log2 fold change, soluble protein after heating vs DMSO (PISA); higher = thermal stabilisation; K562 lysate, 10 uM; active = over 0.2 and 3.5 SD of the protein, either way, in both replicates (recomputed)
[1] = compound: Cc1cn(-c2cc(NC(=O)c3ccc(C)c(Nc4nccc(-c5cccnc5)n4)c3)cc(C(F)(F)F)c2)cn1 [nilotinib]
Method in brief: (§1)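 Values give the log-two fold change in thermal stability against solvent controls, from duplicates. Crude K562 extract at 1 mg/mL protein, made by dounce homogenisation in PBS pH 7.4 with 1 mM MgCl2, was treated with 10 μM compound for 30 min. After 3 min heating across 48°C-58°C, aliquots were pooled, adjusted to 0.5% NP-40 at 4°C and centrifuged at 21,000xg for 90 min. The supernatant was measured by TMTpro 16plex LC-MS/MS with channel sums equalised.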

Chains of the proteins cited; added tags and fusions are not shown. Lines headed by an entry give the natural chain unless they say otherwise; changes in a name come on top.
UniProt B4DR80: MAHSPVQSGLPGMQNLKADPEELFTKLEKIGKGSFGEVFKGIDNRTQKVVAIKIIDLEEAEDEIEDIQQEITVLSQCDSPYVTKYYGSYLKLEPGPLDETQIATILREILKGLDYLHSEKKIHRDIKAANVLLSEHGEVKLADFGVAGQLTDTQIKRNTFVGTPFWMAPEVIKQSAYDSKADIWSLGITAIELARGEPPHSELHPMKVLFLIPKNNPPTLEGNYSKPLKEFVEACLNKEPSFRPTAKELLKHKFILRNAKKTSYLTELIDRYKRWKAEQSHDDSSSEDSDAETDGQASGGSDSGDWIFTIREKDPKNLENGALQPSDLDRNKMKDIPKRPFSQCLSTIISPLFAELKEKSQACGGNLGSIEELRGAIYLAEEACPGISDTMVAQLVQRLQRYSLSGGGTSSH
UniProt O75528: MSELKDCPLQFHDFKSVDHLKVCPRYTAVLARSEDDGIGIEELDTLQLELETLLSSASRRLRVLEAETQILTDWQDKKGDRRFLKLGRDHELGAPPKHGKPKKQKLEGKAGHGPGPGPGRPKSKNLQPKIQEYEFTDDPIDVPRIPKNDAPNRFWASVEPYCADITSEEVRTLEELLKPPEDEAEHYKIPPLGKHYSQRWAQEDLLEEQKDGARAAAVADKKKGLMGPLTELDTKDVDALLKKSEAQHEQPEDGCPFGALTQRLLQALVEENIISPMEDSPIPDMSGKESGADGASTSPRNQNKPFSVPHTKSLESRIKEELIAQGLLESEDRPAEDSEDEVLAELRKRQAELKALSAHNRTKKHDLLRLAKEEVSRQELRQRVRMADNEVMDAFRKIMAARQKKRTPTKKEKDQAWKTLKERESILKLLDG
UniProt P16949: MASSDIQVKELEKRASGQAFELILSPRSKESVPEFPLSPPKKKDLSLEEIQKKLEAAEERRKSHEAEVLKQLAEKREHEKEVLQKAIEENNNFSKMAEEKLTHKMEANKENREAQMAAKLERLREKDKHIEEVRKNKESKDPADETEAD
UniProt O60499: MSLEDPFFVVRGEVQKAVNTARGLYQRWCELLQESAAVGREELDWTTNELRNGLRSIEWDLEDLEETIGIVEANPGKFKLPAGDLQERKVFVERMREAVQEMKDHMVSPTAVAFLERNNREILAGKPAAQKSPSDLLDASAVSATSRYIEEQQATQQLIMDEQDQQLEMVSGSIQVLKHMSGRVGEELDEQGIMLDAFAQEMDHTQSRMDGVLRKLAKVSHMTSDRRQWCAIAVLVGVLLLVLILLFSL
UniProt Q8IX01: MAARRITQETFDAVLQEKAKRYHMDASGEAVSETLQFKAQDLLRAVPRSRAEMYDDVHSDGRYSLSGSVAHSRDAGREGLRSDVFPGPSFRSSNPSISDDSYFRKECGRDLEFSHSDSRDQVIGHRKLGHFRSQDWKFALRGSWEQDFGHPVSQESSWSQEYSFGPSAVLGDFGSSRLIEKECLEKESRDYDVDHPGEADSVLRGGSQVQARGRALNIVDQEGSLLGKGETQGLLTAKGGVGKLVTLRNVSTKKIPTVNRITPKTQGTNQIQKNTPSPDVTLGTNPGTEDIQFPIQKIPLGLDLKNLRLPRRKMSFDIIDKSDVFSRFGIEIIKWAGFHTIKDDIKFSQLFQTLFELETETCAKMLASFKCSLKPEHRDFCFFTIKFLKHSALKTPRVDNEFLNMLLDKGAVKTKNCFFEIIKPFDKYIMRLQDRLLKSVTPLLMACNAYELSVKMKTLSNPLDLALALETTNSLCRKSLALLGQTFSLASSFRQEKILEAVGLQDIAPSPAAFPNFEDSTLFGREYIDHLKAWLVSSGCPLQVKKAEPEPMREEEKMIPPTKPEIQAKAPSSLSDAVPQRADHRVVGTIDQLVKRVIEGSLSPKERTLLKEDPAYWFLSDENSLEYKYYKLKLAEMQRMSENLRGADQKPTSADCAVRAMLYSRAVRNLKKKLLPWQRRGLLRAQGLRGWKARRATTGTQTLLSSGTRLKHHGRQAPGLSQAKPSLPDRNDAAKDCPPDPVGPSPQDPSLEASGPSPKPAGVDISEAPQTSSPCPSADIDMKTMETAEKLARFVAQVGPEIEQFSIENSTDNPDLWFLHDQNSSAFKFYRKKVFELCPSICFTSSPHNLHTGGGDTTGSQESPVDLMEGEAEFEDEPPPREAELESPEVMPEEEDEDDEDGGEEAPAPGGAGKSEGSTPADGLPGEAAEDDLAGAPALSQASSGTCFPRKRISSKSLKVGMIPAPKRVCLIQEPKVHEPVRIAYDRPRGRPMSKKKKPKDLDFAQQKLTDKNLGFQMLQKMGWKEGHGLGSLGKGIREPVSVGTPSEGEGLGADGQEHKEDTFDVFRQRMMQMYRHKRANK
UniProt O00268, whole entry, looked up: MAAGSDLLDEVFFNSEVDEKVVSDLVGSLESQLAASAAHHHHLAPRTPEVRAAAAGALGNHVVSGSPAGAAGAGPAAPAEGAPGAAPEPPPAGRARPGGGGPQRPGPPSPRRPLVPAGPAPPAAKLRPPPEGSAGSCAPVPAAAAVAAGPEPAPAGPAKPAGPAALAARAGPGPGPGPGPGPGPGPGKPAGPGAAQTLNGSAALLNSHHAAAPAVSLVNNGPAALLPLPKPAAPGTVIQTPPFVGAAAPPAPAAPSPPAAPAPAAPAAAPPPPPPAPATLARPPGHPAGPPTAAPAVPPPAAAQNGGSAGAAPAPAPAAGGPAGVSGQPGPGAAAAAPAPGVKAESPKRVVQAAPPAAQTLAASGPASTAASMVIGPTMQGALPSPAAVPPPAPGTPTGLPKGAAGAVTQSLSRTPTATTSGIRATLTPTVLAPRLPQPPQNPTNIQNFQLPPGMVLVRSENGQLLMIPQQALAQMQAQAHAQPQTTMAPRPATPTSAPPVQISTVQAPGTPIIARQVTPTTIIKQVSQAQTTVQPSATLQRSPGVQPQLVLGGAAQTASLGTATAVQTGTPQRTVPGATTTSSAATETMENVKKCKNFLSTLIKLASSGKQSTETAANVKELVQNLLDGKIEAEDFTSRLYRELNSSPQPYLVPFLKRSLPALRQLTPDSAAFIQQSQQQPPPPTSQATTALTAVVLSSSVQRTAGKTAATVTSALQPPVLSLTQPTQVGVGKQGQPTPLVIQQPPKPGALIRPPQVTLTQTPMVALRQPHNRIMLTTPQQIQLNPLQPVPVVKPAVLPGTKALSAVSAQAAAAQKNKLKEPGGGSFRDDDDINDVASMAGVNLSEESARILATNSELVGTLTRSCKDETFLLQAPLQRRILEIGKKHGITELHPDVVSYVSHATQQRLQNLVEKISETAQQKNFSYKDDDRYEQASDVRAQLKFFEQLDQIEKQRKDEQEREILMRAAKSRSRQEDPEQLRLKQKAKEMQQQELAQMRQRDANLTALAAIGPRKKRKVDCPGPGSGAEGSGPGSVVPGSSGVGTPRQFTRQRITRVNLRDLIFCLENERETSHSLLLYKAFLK
UniProt P31948, whole entry, looked up: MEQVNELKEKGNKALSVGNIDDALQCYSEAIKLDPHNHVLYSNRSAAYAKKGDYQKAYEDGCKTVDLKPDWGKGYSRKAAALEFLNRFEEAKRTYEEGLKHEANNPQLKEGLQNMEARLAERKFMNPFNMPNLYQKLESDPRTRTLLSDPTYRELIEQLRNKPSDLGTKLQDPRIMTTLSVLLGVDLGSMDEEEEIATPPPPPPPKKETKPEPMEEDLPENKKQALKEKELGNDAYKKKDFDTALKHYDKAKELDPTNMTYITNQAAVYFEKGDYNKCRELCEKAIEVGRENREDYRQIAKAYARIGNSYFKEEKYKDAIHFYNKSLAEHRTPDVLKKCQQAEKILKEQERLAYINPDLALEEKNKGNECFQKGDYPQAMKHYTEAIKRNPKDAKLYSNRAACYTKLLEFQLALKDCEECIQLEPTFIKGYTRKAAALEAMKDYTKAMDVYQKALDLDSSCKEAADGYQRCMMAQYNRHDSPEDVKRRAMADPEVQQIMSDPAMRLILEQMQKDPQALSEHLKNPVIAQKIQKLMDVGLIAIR
UniProt Q93045: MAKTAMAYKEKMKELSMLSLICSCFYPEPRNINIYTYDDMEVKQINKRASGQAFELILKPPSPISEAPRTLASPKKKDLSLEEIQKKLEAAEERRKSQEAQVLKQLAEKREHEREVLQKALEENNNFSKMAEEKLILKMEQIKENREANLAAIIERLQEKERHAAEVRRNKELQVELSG
UniProt Q1ZZU3: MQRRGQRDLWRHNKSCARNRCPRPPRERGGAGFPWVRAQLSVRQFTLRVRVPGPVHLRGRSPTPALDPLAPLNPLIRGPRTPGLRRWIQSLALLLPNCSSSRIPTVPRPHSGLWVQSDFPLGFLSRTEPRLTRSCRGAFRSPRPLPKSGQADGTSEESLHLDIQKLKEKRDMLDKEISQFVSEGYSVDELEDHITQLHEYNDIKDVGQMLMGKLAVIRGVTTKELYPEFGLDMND
UniProt Q8NHG7: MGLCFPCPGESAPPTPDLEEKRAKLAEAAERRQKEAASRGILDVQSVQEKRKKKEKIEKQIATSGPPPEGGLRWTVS
UniProt Q9P2R7: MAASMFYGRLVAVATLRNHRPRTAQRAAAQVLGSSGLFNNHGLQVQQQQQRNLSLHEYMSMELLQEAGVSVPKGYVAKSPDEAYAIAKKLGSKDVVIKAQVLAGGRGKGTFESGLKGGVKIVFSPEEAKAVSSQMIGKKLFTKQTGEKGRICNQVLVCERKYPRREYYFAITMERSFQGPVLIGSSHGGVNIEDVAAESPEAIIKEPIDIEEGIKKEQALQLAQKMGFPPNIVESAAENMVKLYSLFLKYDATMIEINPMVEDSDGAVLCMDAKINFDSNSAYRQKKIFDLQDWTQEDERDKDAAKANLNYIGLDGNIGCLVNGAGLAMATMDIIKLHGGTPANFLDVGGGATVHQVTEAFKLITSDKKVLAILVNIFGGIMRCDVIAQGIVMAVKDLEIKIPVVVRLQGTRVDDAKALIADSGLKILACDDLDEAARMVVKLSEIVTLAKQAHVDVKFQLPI
UniProt Q15831: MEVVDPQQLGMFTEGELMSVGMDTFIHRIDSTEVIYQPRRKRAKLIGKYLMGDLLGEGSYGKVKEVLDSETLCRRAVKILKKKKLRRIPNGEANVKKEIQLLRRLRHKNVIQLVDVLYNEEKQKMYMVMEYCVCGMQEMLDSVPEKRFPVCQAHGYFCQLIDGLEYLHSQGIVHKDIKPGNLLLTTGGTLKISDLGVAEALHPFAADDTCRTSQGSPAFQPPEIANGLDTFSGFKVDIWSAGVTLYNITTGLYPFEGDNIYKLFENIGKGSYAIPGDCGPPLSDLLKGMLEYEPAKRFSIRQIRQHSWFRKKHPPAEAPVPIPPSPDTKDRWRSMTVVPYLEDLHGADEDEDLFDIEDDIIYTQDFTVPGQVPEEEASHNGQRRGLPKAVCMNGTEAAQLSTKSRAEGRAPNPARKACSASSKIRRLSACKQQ
UniProt Q8NEM7: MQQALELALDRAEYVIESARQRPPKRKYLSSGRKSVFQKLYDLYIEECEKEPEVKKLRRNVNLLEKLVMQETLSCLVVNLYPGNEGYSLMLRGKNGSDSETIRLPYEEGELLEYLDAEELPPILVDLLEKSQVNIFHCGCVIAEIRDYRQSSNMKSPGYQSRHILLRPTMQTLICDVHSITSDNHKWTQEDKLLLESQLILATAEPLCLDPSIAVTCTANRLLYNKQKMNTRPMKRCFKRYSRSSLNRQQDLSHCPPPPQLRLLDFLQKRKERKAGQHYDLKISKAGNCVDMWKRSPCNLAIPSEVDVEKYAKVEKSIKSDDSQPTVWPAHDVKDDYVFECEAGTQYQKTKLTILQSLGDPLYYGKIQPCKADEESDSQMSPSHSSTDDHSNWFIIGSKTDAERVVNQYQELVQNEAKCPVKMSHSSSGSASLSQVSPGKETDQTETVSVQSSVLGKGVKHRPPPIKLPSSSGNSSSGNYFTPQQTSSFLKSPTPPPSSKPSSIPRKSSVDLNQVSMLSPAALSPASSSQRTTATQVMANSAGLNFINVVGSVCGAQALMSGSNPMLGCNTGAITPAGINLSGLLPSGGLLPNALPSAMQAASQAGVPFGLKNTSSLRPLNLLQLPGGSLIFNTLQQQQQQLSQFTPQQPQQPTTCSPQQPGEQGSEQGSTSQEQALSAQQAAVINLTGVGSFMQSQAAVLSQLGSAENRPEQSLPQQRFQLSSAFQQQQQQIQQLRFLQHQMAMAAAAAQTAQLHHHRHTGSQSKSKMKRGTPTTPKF
UniProt Q9Y2Z0: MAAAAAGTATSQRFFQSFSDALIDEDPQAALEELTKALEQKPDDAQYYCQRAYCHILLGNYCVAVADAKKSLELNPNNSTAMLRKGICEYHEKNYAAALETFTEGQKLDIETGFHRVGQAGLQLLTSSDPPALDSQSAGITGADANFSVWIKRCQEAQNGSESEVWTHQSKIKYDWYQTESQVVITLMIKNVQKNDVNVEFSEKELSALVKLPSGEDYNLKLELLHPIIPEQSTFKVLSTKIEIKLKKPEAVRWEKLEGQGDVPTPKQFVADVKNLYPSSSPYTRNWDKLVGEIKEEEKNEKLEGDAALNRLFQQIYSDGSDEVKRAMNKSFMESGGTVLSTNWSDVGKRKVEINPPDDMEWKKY

[2] = compound: Cc1nc(Nc2n[nH]c3c2CN(C(=O)N[C@H](CN(C)C)c2ccccc2)C3(C)C)c2sccc2n1
Method in brief: as §1

[3] = compound: Cc1nc(Nc2ncc(C(=O)Nc3c(C)cccc3Cl)s2)cc(N2CCN(CCO)CC2)n1 [dasatinib]
Method in brief: as §1

[4] = compound: Cc1ncc(-c2ccnc(Nc3ccc(S(C)(=O)=O)cc3)n2)n1C(C)C
Method in brief: as §1

[5] = compound: Cn1cc(-c2ccc3c(c2)CCN3C(=O)Cc2cccc(C(F)(F)F)c2)c2c(N)ncnc21
Method in brief: as §1

[6] = compound: Cn1cc(CNCC2CCN(c3ncc(C(=O)NO)cn3)CC2)c2ccccc21 [quisinostat]
Method in brief: as §1

[7] = compound: Cn1cncc1[C@@](N)(c1ccc(Cl)cc1)c1ccc2c(c1)c(-c1cccc(Cl)c1)cc(=O)n2C [tipifarnib]
Method in brief: as §1

[8] = compound: NC(=O)Nc1cc(-c2cccc(F)c2)sc1C(=O)N[C@H]1CCCNC1
Method in brief: as §1

[9] = compound: NC(=O)c1cnc(N[C@@H]2CCCC[C@@H]2N)nc1Nc1cccc(-n2nccn2)c1
Method in brief: as §1

[10] = compound: NC1(c2ccc(-c3nc4ccn5c(=O)[nH]nc5c4cc3-c3ccccc3)cc2)CCC1
Method in brief: as §1

[11] = compound: NCC(=O)Nc1ccc(-n2nc(C(F)(F)F)cc2-c2ccc3c(ccc4ccccc43)c2)cc1
Method in brief: as §1

[12] = compound: O=C(CCCCCCC(=O)Nc1ccccc1)NO [vorinostat]
Method in brief: as §1

[13] = compound: O=C(O)c1ccc2c(c1)nc(Nc1cccc(Cl)c1)c1ccncc12 [silmitasertib]
Method in brief: as §1

[14] = compound: O=C1NC(=O)C(c2cnc3ccccn23)=C1c1cn2c3c(cc(F)cc13)CN(C(=O)N1CCCCC1)CC2
Method in brief: as §1

[15] = compound: c1cn2cc(-c3ccc4cn[nH]c4c3)nc(Nc3ccc(N4CCOCC4)cc3)c2n1 [entospletinib]
Method in brief: as §1

| Target | log2 fold change [1] | log2 fold change [2] | log2 fold change [3] | log2 fold change [4] | log2 fold change [5] | log2 fold change [6] | log2 fold change [7] | log2 fold change [8] | log2 fold change [9] | log2 fold change [10] | log2 fold change [11] | log2 fold change [12] | log2 fold change [13] | log2 fold change [14] | log2 fold change [15] |
| --- | --- | --- | --- | --- | --- | --- | --- | --- | --- | --- | --- | --- | --- | --- | --- |
| STK24 (UniProt B4DR80) | inactive: 0.031 | active: 0.298 | inactive: 0.092 | inactive: 0.086 | inactive: -0.005 | inactive: -0.019 | inactive: 0.007 | inactive: 0.187 | inactive: 0.023 | inactive: -0.005 | inactive: 0.023 | inactive: 0.029 | inactive: -0.014 | inactive: -0.033 | inactive: 0.001 |
| TAF2 (UniProt Q6P1X5) | inactive: 0.006 | inactive: 0.013 | inactive: -0.015 | inactive: 0.005 | inactive: -0.004 | inactive: -0.015 | inactive: -0.002 | inactive: 0.034 | inactive: 0.01 | inactive: 0.004 | inactive: 0.034 | inactive: -0.106 | inactive: 0.004 | inactive: 0.05 | inactive: 0.001 |
| STT3A (UniProt P46977) | inactive: -0.001 | inactive: 0.008 | inactive: -0.044 | inactive: -0.033 | inactive: -0.012 | inactive: 0.001 | inactive: -0.034 | inactive: 0 | inactive: 0.02 | inactive: 0.012 | inactive: -0.063 | inactive: 0.066 | inactive: 0.03 | inactive: -0.038 | inactive: 0.014 |
| TADA3 (UniProt O75528) | inactive: -0.022 | inactive: -0.036 | inactive: -0.014 | inactive: -0.023 | inactive: 0.019 | inactive: -0.037 | inactive: -0.035 | inactive: 0.006 | inactive: 0.024 | inactive: -0.044 | inactive: 0.018 | active: -0.289 | inactive: -0.021 | inactive: 0.034 | inactive: 0.009 |
| STMN1 (UniProt P16949) | inactive: 0.005 | inactive: -0.026 | inactive: 0.017 | inactive: 0.012 | inactive: -0.021 | inactive: -0.018 | inactive: -0.002 | inactive: 0.016 | inactive: -0.017 | inactive: -0.041 | inactive: 0.007 | inactive: 0.097 | inactive: -0.02 | inactive: 0.027 | inactive: 0.022 |
| STRAP isoform 2 (UniProt Q9Y3F4) | inactive: 0.009 | inactive: 0.013 | inactive: -0.001 | inactive: 0.015 | inactive: -0.017 | inactive: 0.031 | inactive: 0.038 | inactive: -0.019 | inactive: -0.019 | inactive: 0.017 | inactive: 0.004 | inactive: 0.047 | inactive: -0.042 | inactive: -0.019 | inactive: 0.021 |
| SYTL4 (UniProt Q96C24) | inactive: 0.141 | inactive: 0.001 | inactive: 0.04 | inactive: -0.102 | inactive: 0.056 | inactive: -0.053 | inactive: 0.464 | inactive: -0.054 | inactive: 0.119 | inactive: -0.054 | inactive: -0.119 | inactive: 0.002 | inactive: 0.008 | inactive: -0.008 | inactive: 0.01 |
| STX10 (UniProt O60499) | inactive: 0.166 | inactive: 0.147 | inactive: -0.003 | inactive: 0.018 | inactive: -0.057 | inactive: -0.025 | inactive: 0.017 | inactive: -0.045 | inactive: 0.017 | inactive: -0.012 | inactive: 0.049 | inactive: 0.088 | inactive: -0.035 | inactive: -0.004 | inactive: 0.015 |
| SUGP2 (UniProt Q8IX01) | inactive: -0.015 | inactive: -0.045 | inactive: -0.115 | inactive: -0.018 | inactive: 0.112 | inactive: -0.018 | inactive: -0.058 | inactive: 0.154 | inactive: 0.104 | inactive: 0.002 | inactive: -0.001 | inactive: -0.092 | inactive: -0.026 | inactive: 0.037 | inactive: -0.088 |
| SYNCRIP (UniProt O60506) | inactive: -0.026 | inactive: -0.002 | inactive: -0.013 | inactive: -0.019 | inactive: -0.006 | inactive: 0.047 | inactive: 0.032 | inactive: -0.013 | inactive: 0.009 | inactive: 0.01 | inactive: -0.005 | inactive: 0.049 | inactive: 0.008 | inactive: -0.028 | inactive: 0.014 |
| TAF4 (UniProt O00268) | inactive: 0.014 | inactive: -0.087 | inactive: -0.009 | inactive: 0 | inactive: 0.003 | inactive: -0.097 | inactive: -0.029 | inactive: 0.072 | inactive: 0.058 | inactive: 0.079 | inactive: 0.038 | inactive: 0.019 | inactive: -0.056 | inactive: -0.047 | inactive: 0.017 |
| STIP1 isoform 2 (UniProt P31948) | inactive: 0.017 | inactive: 0.001 | inactive: 0.017 | inactive: 0.004 | inactive: 0.018 | inactive: 0.075 | inactive: 0.023 | inactive: -0.026 | inactive: -0.018 | inactive: 0.038 | inactive: -0.02 | inactive: 0.13 | inactive: 0.004 | inactive: 0.007 | inactive: 0.013 |
| STMN2 isoform 2 (UniProt Q93045) | inactive: -0.073 | inactive: 0.014 | inactive: 0 | inactive: -0.011 | inactive: -0.079 | inactive: 0.027 | inactive: 0.118 | inactive: -0.022 | inactive: -0.051 | inactive: -0.032 | inactive: 0.005 | inactive: 0.139 | inactive: 0.009 | inactive: 0.015 | inactive: 0.042 |
| SWI5 (UniProt Q1ZZU3) | inactive: 0.028 | inactive: 0.028 | inactive: -0.001 | inactive: 0.237 | inactive: -0.077 | inactive: 0.019 | inactive: -0.06 | inactive: -0.052 | inactive: -0.019 | inactive: -0.036 | inactive: 0.087 | inactive: 0.098 | inactive: -0.057 | inactive: -0.046 | inactive: -0.039 |
| SVIP (UniProt Q8NHG7) | inactive: -0.006 | inactive: 0 | inactive: -0.066 | inactive: 0.089 | inactive: -0.013 | inactive: 0.034 | inactive: 0.004 | inactive: -0.095 | inactive: -0.012 | inactive: -0.004 | inactive: 0.023 | inactive: 0.171 | inactive: -0.041 | inactive: -0.013 | inactive: -0.012 |
| SUCLA2 (UniProt Q9P2R7) | inactive: 0.013 | inactive: 0.016 | inactive: -0.014 | inactive: 0.01 | inactive: 0.006 | inactive: -0.038 | inactive: 0.006 | inactive: 0.027 | inactive: 0.052 | inactive: 0.011 | inactive: 0.029 | inactive: -0.151 | inactive: 0.028 | inactive: 0.008 | inactive: 0.029 |
| STK11 (UniProt Q15831) | inactive: -0.032 | inactive: 0.009 | inactive: -0.014 | inactive: 0 | inactive: 0.044 | inactive: -0.035 | inactive: -0.012 | inactive: 0.044 | inactive: 0.082 | inactive: -0.027 | inactive: 0.046 | inactive: 0.189 | inactive: -0.082 | inactive: -0.009 | inactive: -0.013 |
| SUPT20H isoform 3 (UniProt Q8NEM7) | inactive: -0.058 | inactive: 0.062 | inactive: 0.049 | inactive: 0.155 | inactive: -0.058 | inactive: -0.395 | inactive: -0.214 | inactive: 0.275 | inactive: 0.127 | inactive: -0.063 | inactive: -0.084 | inactive: -0.225 | inactive: 0.063 | inactive: 0.105 | inactive: -0.12 |
| SUGT1 (UniProt Q9Y2Z0) | inactive: 0.015 | inactive: 0.004 | inactive: 0.005 | inactive: 0.02 | inactive: -0.007 | inactive: 0.053 | inactive: 0.025 | inactive: -0.028 | inactive: 0.004 | inactive: -0.02 | inactive: 0.029 | inactive: 0.066 | inactive: -0.002 | inactive: -0.036 | inactive: 0.004 |

4 entries from above, with tabs:
Target	log2 fold change [1]	log2 fold change [2]	log2 fold change [3]	log2 fold change [4]	log2 fold change [5]	log2 fold change [6]	log2 fold change [7]	log2 fold change [8]	log2 fold change [9]	log2 fold change [10]	log2 fold change [11]	log2 fold change [12]	log2 fold change [13]	log2 fold change [14]	log2 fold change [15]
TAF2 (UniProt Q6P1X5)	inactive: 0.006	inactive: 0.013	inactive: -0.015	inactive: 0.005	inactive: -0.004	inactive: -0.015	inactive: -0.002	inactive: 0.034	inactive: 0.01	inactive: 0.004	inactive: 0.034	inactive: -0.106	inactive: 0.004	inactive: 0.05	inactive: 0.001
STT3A (UniProt P46977)	inactive: -0.001	inactive: 0.008	inactive: -0.044	inactive: -0.033	inactive: -0.012	inactive: 0.001	inactive: -0.034	inactive: 0	inactive: 0.02	inactive: 0.012	inactive: -0.063	inactive: 0.066	inactive: 0.03	inactive: -0.038	inactive: 0.014
TADA3 (UniProt O75528)	inactive: -0.022	inactive: -0.036	inactive: -0.014	inactive: -0.023	inactive: 0.019	inactive: -0.037	inactive: -0.035	inactive: 0.006	inactive: 0.024	inactive: -0.044	inactive: 0.018	active: -0.289	inactive: -0.021	inactive: 0.034	inactive: 0.009
STMN1 (UniProt P16949)	inactive: 0.005	inactive: -0.026	inactive: 0.017	inactive: 0.012	inactive: -0.021	inactive: -0.018	inactive: -0.002	inactive: 0.016	inactive: -0.017	inactive: -0.041	inactive: 0.007	inactive: 0.097	inactive: -0.02	inactive: 0.027	inactive: 0.022

— the supplement of paper PMC10849652
